Laboratory results from the supplement of paper PMC10849652.
This is one part of the list.

Chains of the proteins cited; added tags and fusions are not shown. Lines headed by an entry give the natural chain unless they say otherwise; changes in a name come on top.
UniProt Q5BKZ1: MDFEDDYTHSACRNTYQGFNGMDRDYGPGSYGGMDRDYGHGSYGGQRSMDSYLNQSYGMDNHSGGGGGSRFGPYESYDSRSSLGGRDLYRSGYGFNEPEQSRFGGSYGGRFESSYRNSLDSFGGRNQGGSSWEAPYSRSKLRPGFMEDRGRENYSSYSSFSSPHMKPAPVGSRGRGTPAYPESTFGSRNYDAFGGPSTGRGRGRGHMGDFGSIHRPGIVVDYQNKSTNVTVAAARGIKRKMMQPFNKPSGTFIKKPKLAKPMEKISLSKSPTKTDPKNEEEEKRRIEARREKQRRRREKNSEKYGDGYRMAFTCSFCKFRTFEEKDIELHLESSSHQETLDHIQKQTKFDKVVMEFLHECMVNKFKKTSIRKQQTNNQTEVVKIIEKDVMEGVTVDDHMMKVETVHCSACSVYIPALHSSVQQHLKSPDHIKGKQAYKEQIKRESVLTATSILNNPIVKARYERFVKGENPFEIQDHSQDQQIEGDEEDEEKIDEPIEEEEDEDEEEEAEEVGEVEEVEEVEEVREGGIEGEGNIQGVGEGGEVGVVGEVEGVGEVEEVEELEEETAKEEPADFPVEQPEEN
UniProt Q9UID6: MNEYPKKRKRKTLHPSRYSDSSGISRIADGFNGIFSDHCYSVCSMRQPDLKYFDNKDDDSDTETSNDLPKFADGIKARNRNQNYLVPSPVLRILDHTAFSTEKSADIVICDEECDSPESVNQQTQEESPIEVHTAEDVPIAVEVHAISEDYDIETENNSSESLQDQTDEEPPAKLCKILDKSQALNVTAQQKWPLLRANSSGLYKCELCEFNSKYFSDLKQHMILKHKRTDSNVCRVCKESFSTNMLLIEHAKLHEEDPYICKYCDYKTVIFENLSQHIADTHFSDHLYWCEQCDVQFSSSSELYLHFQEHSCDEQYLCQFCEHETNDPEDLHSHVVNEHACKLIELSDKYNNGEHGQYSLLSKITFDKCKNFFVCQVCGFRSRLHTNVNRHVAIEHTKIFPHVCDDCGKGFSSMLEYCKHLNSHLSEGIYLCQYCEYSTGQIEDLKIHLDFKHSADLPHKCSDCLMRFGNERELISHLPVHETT
UniProt P35789: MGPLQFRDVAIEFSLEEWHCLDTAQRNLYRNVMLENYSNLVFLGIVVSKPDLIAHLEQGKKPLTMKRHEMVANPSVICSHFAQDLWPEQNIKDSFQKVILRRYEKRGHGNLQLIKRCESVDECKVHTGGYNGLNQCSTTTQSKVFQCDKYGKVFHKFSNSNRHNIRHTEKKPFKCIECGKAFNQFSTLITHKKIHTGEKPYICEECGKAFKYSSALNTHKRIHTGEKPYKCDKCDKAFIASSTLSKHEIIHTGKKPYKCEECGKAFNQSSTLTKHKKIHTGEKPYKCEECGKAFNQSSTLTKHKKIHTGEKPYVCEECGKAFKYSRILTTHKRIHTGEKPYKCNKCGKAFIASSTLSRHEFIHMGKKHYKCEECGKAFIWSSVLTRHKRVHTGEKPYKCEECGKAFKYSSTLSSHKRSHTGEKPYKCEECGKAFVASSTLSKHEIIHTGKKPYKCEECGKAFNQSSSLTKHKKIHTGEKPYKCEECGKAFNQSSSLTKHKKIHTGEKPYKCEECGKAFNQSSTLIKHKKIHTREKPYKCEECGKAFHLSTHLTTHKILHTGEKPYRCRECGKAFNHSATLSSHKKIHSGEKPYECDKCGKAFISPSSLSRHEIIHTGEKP
UniProt Q19AV6: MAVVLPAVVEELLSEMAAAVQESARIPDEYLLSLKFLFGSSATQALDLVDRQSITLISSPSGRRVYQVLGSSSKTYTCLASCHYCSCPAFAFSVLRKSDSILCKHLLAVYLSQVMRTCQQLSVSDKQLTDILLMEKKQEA
UniProt Q6NSZ9: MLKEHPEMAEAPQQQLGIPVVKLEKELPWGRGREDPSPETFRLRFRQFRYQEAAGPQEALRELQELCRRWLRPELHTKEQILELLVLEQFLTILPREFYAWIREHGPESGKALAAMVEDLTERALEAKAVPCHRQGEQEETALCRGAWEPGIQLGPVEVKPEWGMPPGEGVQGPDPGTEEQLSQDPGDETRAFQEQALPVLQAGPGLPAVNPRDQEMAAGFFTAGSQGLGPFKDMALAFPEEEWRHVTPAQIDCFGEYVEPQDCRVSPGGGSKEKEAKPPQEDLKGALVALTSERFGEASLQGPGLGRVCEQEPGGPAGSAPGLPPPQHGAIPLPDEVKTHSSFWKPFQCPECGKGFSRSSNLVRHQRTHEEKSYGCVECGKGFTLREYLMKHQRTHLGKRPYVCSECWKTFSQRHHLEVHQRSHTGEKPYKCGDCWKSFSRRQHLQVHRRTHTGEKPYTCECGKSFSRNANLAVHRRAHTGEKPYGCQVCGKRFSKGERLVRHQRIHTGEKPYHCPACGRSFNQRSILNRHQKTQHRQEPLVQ
UniProt Q15072: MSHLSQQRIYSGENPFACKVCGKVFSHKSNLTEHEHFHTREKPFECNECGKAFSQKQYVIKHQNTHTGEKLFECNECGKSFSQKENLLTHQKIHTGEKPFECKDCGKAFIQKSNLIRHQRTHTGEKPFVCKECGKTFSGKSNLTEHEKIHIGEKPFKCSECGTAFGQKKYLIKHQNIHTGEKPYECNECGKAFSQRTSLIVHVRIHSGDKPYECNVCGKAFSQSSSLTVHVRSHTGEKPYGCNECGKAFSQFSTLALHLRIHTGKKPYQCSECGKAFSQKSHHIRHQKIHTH
UniProt P59817: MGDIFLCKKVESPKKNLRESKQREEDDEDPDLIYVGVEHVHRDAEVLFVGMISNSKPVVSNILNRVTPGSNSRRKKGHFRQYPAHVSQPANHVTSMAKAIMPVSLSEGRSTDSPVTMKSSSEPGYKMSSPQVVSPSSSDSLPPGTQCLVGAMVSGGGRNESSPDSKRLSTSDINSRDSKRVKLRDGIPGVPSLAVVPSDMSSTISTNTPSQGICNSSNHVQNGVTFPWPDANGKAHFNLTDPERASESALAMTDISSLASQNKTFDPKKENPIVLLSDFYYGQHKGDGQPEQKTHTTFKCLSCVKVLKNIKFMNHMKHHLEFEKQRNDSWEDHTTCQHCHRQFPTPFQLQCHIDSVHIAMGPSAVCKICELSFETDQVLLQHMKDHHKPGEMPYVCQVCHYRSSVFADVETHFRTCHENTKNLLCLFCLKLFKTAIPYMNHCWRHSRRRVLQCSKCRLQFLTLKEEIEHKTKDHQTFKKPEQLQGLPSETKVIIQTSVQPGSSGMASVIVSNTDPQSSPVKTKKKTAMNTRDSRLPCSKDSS
UniProt Q2TB10: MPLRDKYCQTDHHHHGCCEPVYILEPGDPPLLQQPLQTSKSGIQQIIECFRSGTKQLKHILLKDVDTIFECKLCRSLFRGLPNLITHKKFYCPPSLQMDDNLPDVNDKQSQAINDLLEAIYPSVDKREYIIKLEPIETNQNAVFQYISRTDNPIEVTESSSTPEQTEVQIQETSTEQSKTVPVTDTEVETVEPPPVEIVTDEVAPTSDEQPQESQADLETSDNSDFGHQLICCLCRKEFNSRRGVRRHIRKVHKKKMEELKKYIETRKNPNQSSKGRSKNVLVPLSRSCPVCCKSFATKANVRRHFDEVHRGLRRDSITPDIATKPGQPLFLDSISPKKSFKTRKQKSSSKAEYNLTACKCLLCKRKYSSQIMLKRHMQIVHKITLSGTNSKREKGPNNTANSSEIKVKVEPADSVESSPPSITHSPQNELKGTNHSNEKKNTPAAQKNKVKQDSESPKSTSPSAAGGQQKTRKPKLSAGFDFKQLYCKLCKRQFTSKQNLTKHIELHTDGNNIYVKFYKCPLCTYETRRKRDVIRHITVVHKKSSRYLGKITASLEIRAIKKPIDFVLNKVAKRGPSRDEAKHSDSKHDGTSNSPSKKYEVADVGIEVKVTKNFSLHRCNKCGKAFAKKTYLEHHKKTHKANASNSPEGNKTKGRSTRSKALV
UniProt Q8IZC7: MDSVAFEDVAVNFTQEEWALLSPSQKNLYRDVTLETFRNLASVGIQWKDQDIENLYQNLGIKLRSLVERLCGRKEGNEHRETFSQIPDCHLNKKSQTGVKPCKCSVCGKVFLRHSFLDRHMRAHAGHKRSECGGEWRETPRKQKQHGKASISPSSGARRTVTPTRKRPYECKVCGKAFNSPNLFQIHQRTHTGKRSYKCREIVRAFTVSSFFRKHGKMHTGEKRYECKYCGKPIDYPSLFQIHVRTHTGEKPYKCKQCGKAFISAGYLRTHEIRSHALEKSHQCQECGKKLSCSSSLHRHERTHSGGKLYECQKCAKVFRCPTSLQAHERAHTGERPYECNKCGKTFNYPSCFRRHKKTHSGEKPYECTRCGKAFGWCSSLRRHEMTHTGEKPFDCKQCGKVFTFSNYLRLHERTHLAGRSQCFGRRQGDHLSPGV
UniProt Q96AP4: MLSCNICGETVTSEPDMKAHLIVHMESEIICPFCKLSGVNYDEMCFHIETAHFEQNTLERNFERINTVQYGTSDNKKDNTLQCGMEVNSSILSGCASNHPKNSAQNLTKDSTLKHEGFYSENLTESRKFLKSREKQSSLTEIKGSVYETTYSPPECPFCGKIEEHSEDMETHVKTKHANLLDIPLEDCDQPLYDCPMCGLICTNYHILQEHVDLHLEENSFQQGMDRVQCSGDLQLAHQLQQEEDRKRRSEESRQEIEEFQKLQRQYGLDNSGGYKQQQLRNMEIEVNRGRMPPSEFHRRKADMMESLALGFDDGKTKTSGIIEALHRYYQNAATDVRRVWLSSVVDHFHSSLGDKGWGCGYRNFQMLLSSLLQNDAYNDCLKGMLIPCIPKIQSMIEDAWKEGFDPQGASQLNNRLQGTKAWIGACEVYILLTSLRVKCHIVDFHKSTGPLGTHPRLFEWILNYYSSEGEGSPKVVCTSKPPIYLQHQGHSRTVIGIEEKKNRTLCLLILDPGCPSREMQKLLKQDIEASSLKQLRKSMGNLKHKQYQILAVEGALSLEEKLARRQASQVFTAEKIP
UniProt Q9Y5A6: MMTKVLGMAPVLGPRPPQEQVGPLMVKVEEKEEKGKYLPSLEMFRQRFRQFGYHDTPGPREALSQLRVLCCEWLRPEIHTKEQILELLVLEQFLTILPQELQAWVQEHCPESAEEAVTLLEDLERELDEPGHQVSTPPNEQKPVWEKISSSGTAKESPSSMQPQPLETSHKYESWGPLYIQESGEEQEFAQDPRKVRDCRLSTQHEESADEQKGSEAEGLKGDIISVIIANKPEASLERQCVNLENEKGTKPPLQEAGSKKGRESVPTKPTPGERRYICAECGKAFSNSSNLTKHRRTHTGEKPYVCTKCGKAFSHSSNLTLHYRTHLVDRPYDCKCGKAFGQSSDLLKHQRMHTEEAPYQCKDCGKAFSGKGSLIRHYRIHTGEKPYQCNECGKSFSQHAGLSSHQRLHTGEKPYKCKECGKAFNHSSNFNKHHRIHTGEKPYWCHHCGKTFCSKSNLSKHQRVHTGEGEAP
UniProt Q9BS34: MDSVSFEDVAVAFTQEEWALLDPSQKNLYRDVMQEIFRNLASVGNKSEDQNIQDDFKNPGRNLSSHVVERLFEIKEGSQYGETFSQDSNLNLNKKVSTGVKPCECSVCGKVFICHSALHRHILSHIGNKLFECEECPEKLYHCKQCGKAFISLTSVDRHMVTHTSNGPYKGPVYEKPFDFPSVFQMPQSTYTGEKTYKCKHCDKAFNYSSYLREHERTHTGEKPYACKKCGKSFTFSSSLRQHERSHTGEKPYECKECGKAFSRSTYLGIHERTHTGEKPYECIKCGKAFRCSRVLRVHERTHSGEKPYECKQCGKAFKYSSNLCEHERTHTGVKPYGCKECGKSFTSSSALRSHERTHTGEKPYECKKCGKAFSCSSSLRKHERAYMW
UniProt Q9P1U0, whole entry, looked up: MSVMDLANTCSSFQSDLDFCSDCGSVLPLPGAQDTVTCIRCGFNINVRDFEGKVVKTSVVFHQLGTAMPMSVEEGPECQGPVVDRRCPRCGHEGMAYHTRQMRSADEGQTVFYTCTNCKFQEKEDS
UniProt Q96MX3: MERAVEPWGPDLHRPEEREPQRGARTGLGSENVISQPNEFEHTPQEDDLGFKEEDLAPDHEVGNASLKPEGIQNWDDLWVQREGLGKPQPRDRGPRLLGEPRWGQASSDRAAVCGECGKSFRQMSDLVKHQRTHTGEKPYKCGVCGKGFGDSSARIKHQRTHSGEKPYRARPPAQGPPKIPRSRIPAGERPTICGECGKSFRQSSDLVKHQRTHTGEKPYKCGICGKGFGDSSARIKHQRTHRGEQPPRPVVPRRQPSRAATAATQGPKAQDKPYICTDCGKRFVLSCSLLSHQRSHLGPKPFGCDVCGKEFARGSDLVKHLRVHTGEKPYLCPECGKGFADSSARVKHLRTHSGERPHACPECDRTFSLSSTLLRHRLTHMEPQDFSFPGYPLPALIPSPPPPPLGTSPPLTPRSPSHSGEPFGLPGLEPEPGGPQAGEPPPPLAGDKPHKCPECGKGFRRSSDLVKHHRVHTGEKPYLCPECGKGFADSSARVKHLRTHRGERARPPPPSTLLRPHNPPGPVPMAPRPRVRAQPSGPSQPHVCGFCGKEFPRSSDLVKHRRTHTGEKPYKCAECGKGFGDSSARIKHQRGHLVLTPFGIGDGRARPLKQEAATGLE

What follows are targets tested with CC1=C2C(=CC=C1)N=C(N(C2=O)C3=CC=CC=C3C)CN4C=NC5=C(N=CN=C54)N (assay: log2 fold change, soluble protein after heating vs DMSO (PISA); higher = thermal stabilisation; K562 lysate, 10 uM; active = over 0.2 and 3.5 SD of the protein, either way, in both replicates (recomputed)).
Summary of the method: (§1)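 K562 pellets were dounce-homogenised in PBS pH 7.4 containing 1 mM MgCl2, and the crude extract, at 1 mg/mL protein, was exposed to 10 μM compound for 30 min. Aliquots were heated for 3 min across 48°C-58°C, pooled, brought to 0.5% NP-40 at 4°C and spun at 21,000xg for 90 min, with the supernatant taken as soluble protein. TMTpro 16plex LC-MS/MS with equalised channel sums quantified that protein. Values are log-two fold changes in thermal stability relative to solvent controls, taken from duplicates.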
For ZNF326 (UniProt Q5BKZ1), the log2 fold change was inactive: -0.114.
ZNF655 isoform 2 (UniProt Q8N720) was tested, and the log2 fold change was inactive: -0.14.
In the case of ZNF618 (UniProt B1ALC2), the log2 fold change is reported as inactive: -0.13.
For ZNF639 (UniProt Q9UID6), the log2 fold change was inactive: 0.083.
With ZNF852 (UniProt Q6ZMS4) the log2 fold change was inactive: 0.259.
In the case of ZNF93 (UniProt P35789), the log2 fold change is reported as inactive: 0.035.
ZNF595 (UniProt Q8IYB9) was tested, and the log2 fold change was inactive: -0.06.
ZSWIM7 (UniProt Q19AV6) was tested, and the log2 fold change was inactive: -0.137.

These targets were tested with Cc1sc2c(c1C)C(c1ccc(Cl)cc1)=N[C@@H](CC(=O)OC(C)(C)C)c1nnc(C)n1-2 in the same assay as above.
Summary of the method: as §1
With ZNF326 (UniProt Q5BKZ1) the log2 fold change was inactive: 0.07.
For ZNF184 (UniProt Q99676), the log2 fold change was inactive: 0.005.
In the case of ZNF384 (UniProt Q8TF68), the log2 fold change is reported as inactive: -0.187.
For ZSCAN25 (UniProt Q6NSZ9), the log2 fold change was inactive: 0.014.
For ZNF146 (UniProt Q15072), the log2 fold change was inactive: -0.059.
For ZNF281 (UniProt Q9Y2X9), the log2 fold change was inactive: -0.02.
For ZNF280A (UniProt P59817), the log2 fold change was inactive: -0.004.
With ZNF687 (UniProt Q8N1G0) the log2 fold change was inactive: 0.022.
In the case of ZNF800 (UniProt Q2TB10), the log2 fold change is reported as inactive: 0.167.
In the case of ZNF101 (UniProt Q8IZC7), the log2 fold change is reported as inactive: -0.007.
ZNF618 (UniProt B1ALC2) was tested, and the log2 fold change was inactive: -0.11.
ZNF639 (UniProt Q9UID6) was tested, and the log2 fold change was inactive: -0.034.
In the case of ZNF813 (UniProt Q6ZN06), the log2 fold change is reported as inactive: 0.251.
With ZNF785 (UniProt A8K8V0) the log2 fold change was inactive: 0.102.
With ZGRF1 (UniProt Q86YA3) the log2 fold change was inactive: -0.002.
For ZNF808 (UniProt Q8N4W9), the log2 fold change was inactive: -0.045.
ZNF93 (UniProt P35789) was tested, and the log2 fold change was inactive: 0.051.
ZNF562 (UniProt Q6V9R5) was tested, and the log2 fold change was inactive: -0.064.
For ZUP1 (UniProt Q96AP4), the log2 fold change was inactive: -0.073.
With ZNF526 (UniProt Q8TF50) the log2 fold change was inactive: -0.066.
For ZSWIM7 (UniProt Q19AV6), the log2 fold change was inactive: -0.033.

These targets were tested with c1ccc([C@@H]2C[C@H]2NC2CCNCC2)cc1 in the same assay as above.
Summary of the method: as §1
ZNF326 (UniProt Q5BKZ1) was tested, and the log2 fold change was inactive: -0.01.
With ZNF280D (UniProt Q6N043) the log2 fold change was inactive: 0.035.
In the case of ZSCAN21 (UniProt Q9Y5A6), the log2 fold change is reported as inactive: -0.074.
For ZNF414 isoform 2 (UniProt Q96IQ9), the log2 fold change was inactive: 0.123.
ZNF286A (UniProt Q9HBT8) was tested, and the log2 fold change was inactive: -0.068.
With ZNF670 (UniProt Q9BS34) the log2 fold change was inactive: -0.147.
In the case of ZNF655 isoform 2 (UniProt Q8N720), the log2 fold change is reported as inactive: 0.115.
ZNRD1 (UniProt Q9P1U0) was tested, and the log2 fold change was inactive: -0.099.
With ZNF618 (UniProt B1ALC2) the log2 fold change was inactive: 0.058.
For ZNF48 (UniProt Q96MX3), the log2 fold change was inactive: 0.037.
ZNF639 (UniProt Q9UID6) was tested, and the log2 fold change was inactive: 0.027.
For ZNF813 (UniProt Q6ZN06), the log2 fold change was inactive: 0.143.
For ZNF852 (UniProt Q6ZMS4), the log2 fold change was inactive: 0.116.
For ZNF324 (UniProt O75467), the log2 fold change was inactive: -0.084.
In the case of ZGRF1 (UniProt Q86YA3), the log2 fold change is reported as inactive: 0.224.
With ZNF526 (UniProt Q8TF50) the log2 fold change was inactive: 0.123.
For ZNF595 (UniProt Q8IYB9), the log2 fold change was inactive: -0.019.
ZSWIM7 (UniProt Q19AV6) was tested, and the log2 fold change was inactive: -0.184.
